Some of these results come from one statement about several compounds together.
Tested on: Sphaerotheca fuliginea
Assay: Test Example 2: preventive efficacy against Sphaerotheca fuliginea on cucumber
Type: in vivo
Details: 500 ppm flowable, foliar spray on cucumber leaves, inoculated after spraying, 23° C., 12 days

With `Fc1cc(F)c(-c2c(Cl)nc3nccn3c2NC2CCCCC2)c(F)c1` [Compound 20] the “areas of lesions on treated plants as % of areas of lesions on untreated groups” value was ≤ 30%.
